The other results are listed elsewhere or left out. Further columns of the screen follow, without active or inactive calls. The list favours compounds with an active or inconclusive main result. The note in brackets gives the kind of curve behind each potency; many fits are weak.

A short description of this assay: qHTS Assay to Find Inhibitors of Chronic Active B-Cell Receptor Signaling. The note with it: ABC-DLBCL IkBa-CBG/CBR reporter, luminescence ratio (green luciferase fused to IkBa over red control in TMD8 lymphoma cells), 4 h. The procedure, abridged: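 Cell line TMD8 (human ABC DLBCL), stably expressing tet-inducible CBG68-IkBa fusion and CBR; IMDM/0.5% FBS; cpd up to 46 uM; dox induction, 4 h, 37C/5% CO2; dual luminescence; green/red ratio; MG132 control.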

The mark [1] stands for this setting: measured here: CBR red luminescence, cell number.

As to `COc1ccc(Cn2c(CCCO)nc3ccccc32)cc1OC`, the concentration at half-maximal activity (AC50) reads like this: under setting [1], 4.61 µM [rising, single point]; (measured here: IkBa-CBG green luminescence) 6.51 µM [falling, partial curve, poor fit].
Regarding `CC(C)(C)Nc1c(-c2ccc(O)cc2)nc2ccc(Cl)cn12`, the concentration at half-maximal activity (AC50) under setting [1] was 12.6 µM [falling, partial curve].
Regarding `Cc1csc(NC(=O)c2cc3ccccc3o2)n1`, under setting [1], the AC50 is 6.51 µM [falling, partial curve].
On the same count and under the same terms, in the case of `O=C(Nc1nc(-c2ccccn2)cs1)Nc1ccc(F)cc1F` it was 11.2 µM [falling, partial curve, poor fit]; in that of `CN(C)c1ccc(C(=O)NN2C(=O)c3ccccc3C2=O)cc1`, 22.4 µM [falling, single point]; in that of `Cc1ncc(CN2CCC(N3CCC(C(=O)N4CCCC4)CC3)CC2)s1`, 3.55 µM [rising, partial curve].
Same read-out and setting: under `O=C(Nc1cc(Cl)ccn1)C1CCN(S(=O)(=O)c2cccs2)CC1` stands 4.11 µM [falling, full curve, poor fit].
Still for that read-out and setting: under `CCC(COC(=O)c1ccccc1)Oc1cc(NCc2ccccc2)c2ncn(C(C)C)c2c1` (centres undefined) stands 29.1 µM [falling, single point].
For `CC1CC(C)CN(c2ccc(S(=O)(=O)N3CCOCC3)cc2)C1` (centres undefined), the AC50 under setting [1] was 2.82 µM [rising, full curve].
The same measure, in the same setting: under `COc1cc(/C=C(\C#N)C(=O)Nc2ccc3c(c2)OCCO3)ccc1O` stands 35.5 µM [falling, single point]; under `CCN1CCN(c2ncc(C(=O)Nc3c(F)cc(F)cc3Br)c3ccccc23)CC1`, 16.4 µM [falling, single point].
`Cc1ccc(/C=C2\SC(=S)N(CCC(=O)N3CCCCC3)C2=O)cc1`: the AC50 under setting [1] is 11.2 µM [falling, single point].
Take `COC(=O)c1ccc(NC(=O)COc2ccc(S(=O)(=O)N3CCCCC3)cc2)cc1`: the AC50 under setting [1] is 6.51 µM [falling, single point].
In the case of `Cc1ccc(S(=O)(=O)c2cn(C)c3cc(N4CCN(C)CC4)c(F)cc3c2=O)cc1`, the AC50 under setting [1] was 5.62 µM [falling, single point].
In the case of `CCCCn1c(=O)[nH]c(=O)c2c1nc(-c1ccccc1F)n2Cc1ccccc1`, the AC50 under setting [1] was 35.5 µM [falling, single point].
Still for that read-out and setting: under `COc1ccc(S(=O)(=O)N(CC(=O)NCc2ccccc2OC)c2ccc(C)cc2)cc1` stands 14.1 µM [falling, partial curve, poor fit].
As for `Cc1ccc(S(=O)(=O)N2CCCC2CNC(=O)c2ccc(F)c(F)c2)cc1` (centres undefined), under setting [1], the AC50 is 6.51 µM [falling, full curve].
Regarding `CC(=O)c1c(C)[nH]c(C(=O)OCc2cccc(C)c2)c1C`, the AC50 under setting [1] is 1.12 µM [rising, full curve, poor fit].

These data come from PubChem BioAssay AID493014 (National Center for Advancing Translational Sciences (NCATS), 2011).
